These results are taken from publication PMC6914705.

These are yes or no findings as the source states them, for the method shown. Binding seen in cells or lysates may run through a third protein. Some binding calls cover weakened binding; strength is not graded here.

For this assay, the target named is Cullin-1 (HEK 293 cells) (human (endogenous in HEK 293)) (UniProt Q13616). Briefly: co-IP; HEK 293 cells transfected with pcDNA3.1(+)steA or empty plasmid (36 h), TNFα for 30 min, whole-cell lysates immunoprecipitated with anti-Cullin-1 antibody, HA-tagged SteA detected with anti-HA antibody.

Take “HA-tagged SteA (from UniProt Q8ZPD7 1-210)”: the binding entry was “binds”.
